# Assay results as given in PubChem BioAssay (NCATS).
# Sequences of proteins named here, by UniProt entry; tags and fusion partners are left off. A change or cut given only in a name is not applied to a line headed by its entry.
# UniProt P37231: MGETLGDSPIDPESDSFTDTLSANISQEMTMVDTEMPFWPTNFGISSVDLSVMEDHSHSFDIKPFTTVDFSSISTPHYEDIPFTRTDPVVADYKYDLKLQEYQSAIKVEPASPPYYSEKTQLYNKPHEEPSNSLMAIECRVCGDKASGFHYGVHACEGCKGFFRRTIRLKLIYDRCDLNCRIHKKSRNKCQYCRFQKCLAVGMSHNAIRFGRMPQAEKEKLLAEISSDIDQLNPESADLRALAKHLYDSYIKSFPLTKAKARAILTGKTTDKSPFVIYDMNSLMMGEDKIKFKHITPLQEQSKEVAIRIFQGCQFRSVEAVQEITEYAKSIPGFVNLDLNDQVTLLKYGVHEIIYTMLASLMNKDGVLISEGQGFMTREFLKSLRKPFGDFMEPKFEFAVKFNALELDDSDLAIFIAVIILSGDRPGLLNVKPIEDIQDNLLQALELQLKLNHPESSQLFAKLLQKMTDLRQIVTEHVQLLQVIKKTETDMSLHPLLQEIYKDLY
# UniProt P11473: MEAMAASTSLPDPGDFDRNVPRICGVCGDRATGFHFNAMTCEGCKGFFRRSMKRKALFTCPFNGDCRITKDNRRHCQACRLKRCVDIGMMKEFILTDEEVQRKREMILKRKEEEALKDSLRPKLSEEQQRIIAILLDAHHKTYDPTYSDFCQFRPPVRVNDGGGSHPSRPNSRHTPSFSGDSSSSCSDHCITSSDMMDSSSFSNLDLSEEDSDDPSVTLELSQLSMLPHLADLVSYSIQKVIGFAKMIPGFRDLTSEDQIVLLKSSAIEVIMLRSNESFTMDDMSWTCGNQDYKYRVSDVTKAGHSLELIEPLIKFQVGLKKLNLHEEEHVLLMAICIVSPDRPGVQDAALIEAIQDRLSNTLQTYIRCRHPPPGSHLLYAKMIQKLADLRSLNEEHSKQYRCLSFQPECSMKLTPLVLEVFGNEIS
# UniProt P19793: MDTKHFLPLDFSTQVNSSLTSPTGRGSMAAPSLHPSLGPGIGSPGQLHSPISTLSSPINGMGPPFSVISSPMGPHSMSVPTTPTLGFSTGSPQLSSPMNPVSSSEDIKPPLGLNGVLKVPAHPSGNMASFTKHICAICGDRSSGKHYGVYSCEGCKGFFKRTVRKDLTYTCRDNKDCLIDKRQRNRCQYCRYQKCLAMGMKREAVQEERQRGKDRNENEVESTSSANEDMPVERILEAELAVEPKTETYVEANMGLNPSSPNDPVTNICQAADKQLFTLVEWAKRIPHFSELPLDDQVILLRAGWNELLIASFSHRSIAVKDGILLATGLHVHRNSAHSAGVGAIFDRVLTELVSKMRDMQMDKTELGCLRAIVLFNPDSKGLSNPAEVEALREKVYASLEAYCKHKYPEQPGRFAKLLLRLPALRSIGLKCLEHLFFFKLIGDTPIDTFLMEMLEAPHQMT
# UniProt P10275: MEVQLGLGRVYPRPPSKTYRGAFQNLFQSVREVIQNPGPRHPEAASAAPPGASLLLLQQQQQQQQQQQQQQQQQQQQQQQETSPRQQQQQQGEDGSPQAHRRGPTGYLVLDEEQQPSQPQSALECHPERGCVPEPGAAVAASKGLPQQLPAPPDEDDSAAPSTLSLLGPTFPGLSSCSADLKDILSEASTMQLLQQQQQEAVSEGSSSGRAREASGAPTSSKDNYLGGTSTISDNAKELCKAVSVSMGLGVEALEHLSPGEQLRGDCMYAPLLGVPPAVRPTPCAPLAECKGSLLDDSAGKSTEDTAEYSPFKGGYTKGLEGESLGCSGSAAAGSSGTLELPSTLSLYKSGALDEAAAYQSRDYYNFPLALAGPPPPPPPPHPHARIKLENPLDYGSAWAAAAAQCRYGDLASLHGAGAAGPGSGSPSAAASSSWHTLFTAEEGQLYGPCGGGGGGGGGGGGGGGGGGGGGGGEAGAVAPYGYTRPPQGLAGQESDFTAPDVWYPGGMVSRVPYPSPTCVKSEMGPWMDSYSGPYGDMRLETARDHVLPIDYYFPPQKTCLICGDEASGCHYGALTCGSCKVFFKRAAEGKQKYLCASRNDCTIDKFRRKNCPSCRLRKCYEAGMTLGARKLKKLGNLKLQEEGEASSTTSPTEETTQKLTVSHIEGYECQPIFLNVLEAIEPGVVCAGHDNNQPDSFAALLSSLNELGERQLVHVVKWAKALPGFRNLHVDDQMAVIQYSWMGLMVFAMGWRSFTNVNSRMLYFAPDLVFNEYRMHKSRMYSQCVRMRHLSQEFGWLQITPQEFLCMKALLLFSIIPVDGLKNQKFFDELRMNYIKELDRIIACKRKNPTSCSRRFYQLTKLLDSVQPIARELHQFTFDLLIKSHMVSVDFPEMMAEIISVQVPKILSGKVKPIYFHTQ
# Several values for one entry are separate records, joined by “and”; a condition that tells them apart may be missing. Equal values may be shown once. The shares of active, inactive and inconclusive entries below differ from those in the screen. For some assays here: Where the call is inconclusive, the potency comes from a doubtful curve fit. Activity calls are given as the source filed them. Unless noted, calls come from the whole dose curve; as a rule, active = well fitted curve in the direction sought with a large enough effect; inconclusive = small, poorly fitted or top-dose-only effect, or another doubt; inactive = no such curve, though single readings can be large; an effect the other way counts as inactive or inconclusive.
# Experiments:
# [1] = Quantitative High-Throughput drug screen in 47 multiple myeloma cell lines against the NCATS MIPE library collection: KMS12BM_JCRB cell viability assay (AID 1918971); conditions: KMS12BM myeloma viability, CellTiter-Glo ATP, 48 h; series mostly up to 45.8 µM; note: nearly all actives have a fitted effect of over 35% in size
# In short: (§1)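 Approved and investigational drugs from MIPE 4.0 were added by pin tool to 500 cells per well. After 48 hours at 37C, ATP-based CellTiter-Glo luminescence indicated remaining viability.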
# [2] = Quantitative High-Throughput drug screen in 47 multiple myeloma cell lines against the NCATS MIPE library collection: KMS12PE_JCRB cell viability assay (AID 1918972); conditions: KMS12PE myeloma viability, CellTiter-Glo ATP, 48 h; series mostly up to 45.8 µM; note: potency is the fitted concentration of half-maximal effect; nearly all actives have a fitted effect of over 30% in size
# In short: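 Viability readout: CellTiter-Glo luminescence following 5 min room-temperature incubation with reagent. Prior exposure: 48 h, 37C, humidified 5% CO2, 500 cells per well.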
# [3] = Quantitative High-Throughput drug screen in 47 multiple myeloma cell lines against the NCATS MIPE library collection: KMS26_JCRB cell viability assay (AID 1918975); conditions: KMS26 myeloma cells viability, CellTiter-Glo ATP, 48 h; viability (% of DMSO): at 45.8 µM (top of the series); note: nearly all actives have a fitted effect of over 45% in size
# In short: as §1
# [4] = qHTS of pediatric cancer cell lines to identify multiple opportunities for drug repurposing: Confirmatory screen for NB1643 cells (AID 1347109); conditions: NB1643 neuroblastoma cell viability; series mostly up to 45.9 µM; note: potency is the fitted concentration of half-maximal effect; nearly all actives have a fitted effect of over 45% in size
# In short: (§2)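 Viability after 48 h compound treatment at 37C, 500-1,000 cells/well, read as ATP luminescence with CellTiter-Glo. Primary screens used 11-point (MIPE, 0.78 nM-46 µM) or 8-point (NPC, 0.59 nM-46 µM) final concentrations; follow-up screens used 11-point dilutions.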
# [5] = qHTS of pediatric cancer cell lines to identify multiple opportunities for drug repurposing: Confirmatory screen for BT-12 cells (AID 1347112); conditions: BT-12 rhabdoid tumor cells, viability; series mostly up to 45.9 µM; note: potency is the fitted concentration of half-maximal effect; nearly all actives have a fitted effect of over 55% in size
# In short: as §2
# [6] = qHTS of pediatric cancer cell lines to identify multiple opportunities for drug repurposing: Confirmatory screen for SK-N-SH cells (AID 1347129); conditions: SK-N-SH neuroblastoma cell viability; series mostly up to 46.1 µM;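 note: potency is the fitted concentration of half-maximal effect; cells exposed to compound for 48 h before viability read; nearly all actives have a fitted effect of over 60% in size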
# In short: as §2
# [7] = Quantitative High-Throughput drug screen in 47 multiple myeloma cell lines against the NCATS MIPE library collection: FR4_PLB cell viability assay (AID 1918924; note: potency is the fitted concentration of half-maximal effect; nearly all actives have a fitted effect of over 35% in size); conditions: FR4_PLB myeloma cells viability, CellTiter-Glo ATP, 48 h; series mostly up to 45.8 µM
# In short: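 We plated 500 myeloma cells per well, pinned in MIPE 4.0 compounds, and incubated for 48 hours at 37C. ATP was then quantified with CellTiter-Glo, with DMSO and media-only wells defining 100% and 0%.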
# [8] = Quantitative High-Throughput drug screen in 47 multiple myeloma cell lines against the NCATS MIPE library collection: LP1_DSMZ cell viability assay (AID 1918982); conditions: LP1 myeloma viability, CellTiter-Glo ATP luminescence, 48 h; series mostly up to 45.8 µM; note: potency is the fitted concentration of half-maximal effect; nearly all actives have a fitted effect of over 35% in size
# In short: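 Cells were exposed to library compounds for 48 hours, after which ATP was measured by CellTiter-Glo. Signal was taken as median relative luminescence units.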
# [9] = qHTS of pediatric cancer cell lines to identify multiple opportunities for drug repurposing: Confirmatory screen for DAOY cells (AID 1347114); conditions: DAOY medulloblastoma cells viability, cytotoxicity qHTS; series mostly up to 45.9 µM; note: potency is the fitted concentration of half-maximal effect; nearly all actives have a fitted effect of over 65% in size
# In short: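 Viability measured as metabolically active cells via CellTiter-Glo luminescence following 48 hours of compound exposure, 11-point dilutions in confirmatory testing. 500-1,000 cells/well plated 5 hours before dosing; controls were DMSO and 2.3 µM bortezomib.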
# [10] = qHTS of pediatric cancer cell lines to identify multiple opportunities for drug repurposing: Confirmatory screen for Saos-2 cells (AID 1347127); conditions: Saos-2 osteosarcoma cell viability; series mostly up to 45.9 µM; note: potency is the fitted concentration of half-maximal effect; nearly all actives have a fitted effect of over 60% in size
# In short: as §2
# [11] = test system: Zika virus NS2B-NS3 protease (linked); assay: 384 well plate NINDS AMC confirmatory qHTS for Zika virus inhibitors (AID 1347163); conditions: Recombinant NS2B-NS3 protease, Ac-VKTGKR-AMC fluorescence; series mostly up to 100 µM; note: potency is the fitted concentration of half-maximal effect; nearly all actives have a fitted effect of over 50% in size
# In short: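 Fluorescence at 355/460 nm was read after 25 minutes of cleavage of 30 microM Ac-VKTGKR-AMC at room temperature, in the dark. Before substrate addition, compounds (up to 1 mM final) sat ~15 minutes with 5, 30 or 60 nM linked protease. Signals were normalized to no-enzyme and no-inhibitor wells.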
# [12] = Vero cells viability qHTS for Zika virus inhibitors (AID 1347167); conditions: cytotoxicity counter-screen (Zika); series mostly up to 45.9 µM; note: potency is the fitted concentration of half-maximal effect
# In short: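 qHTS titration; 24-48 h compound exposure, 37 degrees C/5% CO2; DMEM, 4% FBS; CellTiter Glo ATP luminescence.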
# [13] = target: Peroxisome proliferator-activated receptor gamma (Homo sapiens) (UniProt P37231); assay: qHTS assay for small molecule agonists of peroxisome proliferator-activated receptor gamma signaling (AID 588536; active = well fitted curve in the direction sought with a large enough effect in the signal ratio, with a control signal flat, not every such curve was filed as active; inconclusive = small, poorly fitted or top-dose-only effect, or effect the other way, or a change in a side signal; inactive = no such curve, though single readings can be large or run the other way; the % refers to the signal ratio;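 note: 0% = DMSO basal wells and 100% = rosiglitazone at 2 µM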); conditions: HEK293 PPARg-UAS-bla, beta-lactamase ratio, 16 h; activation: at 76.7 µM (top of the series), percent of rosiglitazone response, DMSO as zero
# In short: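 Compound treatment: 16 h, 37 C, HEK293 GeneBLAzer cells. Detection: CCF4, 2 h RT. Values: Hill-fit EC50, efficacy as % of 2 uM rosiglitazone.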
# [14] = target: Vitamin D3 receptor (Homo sapiens) (UniProt P11473); assay: qHTS assay for small molecule antagonists of vitamin D receptor signaling (AID 588541; calls by dose curve;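 note: receptor activated by calcitriol during compound treatment; % is set by controls: 0 for no effect and ±100 for the full control effect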); conditions: HEK293T VDR-UAS-bla, beta-lactamase ratio, antagonist mode; activity change, negative = inhibition: at 76.7 µM (top of the series)
# [15] = target: Retinoic acid receptor RXR-alpha (Homo sapiens) (UniProt P19793); assay: qHTS assay for small molecule antagonists of retinoid X receptor alpha signaling (AID 588546; active = well fitted inhibition curve with a large enough effect in the signal ratio, with a control signal flat, not every such curve was filed as active; inconclusive = small, poorly fitted or top-dose-only effect, or effect the other way, or a change in a side signal; inactive = no such curve, though single readings can be large or run the other way; the % refers to the signal ratio;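 note: cells stimulated with 9-cis-retinoic acid as agonist; % is set by controls: 0 for no effect and ±100 for the full control effect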); conditions: HEK293T RXRa-UAS-bla, beta-lactamase ratio, antagonist mode
# In short: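 Beta-lactamase reporter inhibition, read as CCF4 fluorescence ratio (ex 405, em 460/530 nm) after 2 h at RT. HEK293T UAS-bla cells, 2500/well, were stimulated with 9-cis-RA at 500 or 100 nM final alongside test compound for 18 h at 37 C.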
# [16] = Cell Viability - SK-N-SH (AID 435; calls by dose curve;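 note: potency is the fitted concentration of half-maximal effect; compound exposure lasted 40 h at 37 °C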); conditions: SK-N-SH neuroblastoma cell viability qHTS
# In short: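 Luminescent ATP signal served as the viability read-out after 40 hours of compound treatment of human neuroblastoma SK-N-SH cells. Concentration-response data, scaled between DMSO and 100 uM tamoxifen, gave AC50 values by standard Hill modeling.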
# [17] = Cell Viability - N2a (AID 540); conditions: N2a mouse neuroblastoma cell viability; at 92.2 µM (top of the series);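 note: cells exposed to compound for 40 h at 37 °C; plate controls were DMSO alone for no effect and tamoxifen control for full effect; nearly all actives have a fitted effect of over 45% in size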
# In short: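 Cytotoxicity was scored as loss of cellular ATP in N2a cells, a mouse neuroblastoma line. Compounds are applied in a qHTS concentration series for 40 hr at 37 °C.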
# [18] = Cell Viability - NIH 3T3 (AID 541); conditions: NIH 3T3 cell viability, qHTS; at 92.2 µM (top of the series);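 note: plate controls were DMSO alone for no effect and tamoxifen positive control for full effect; nearly all actives have a fitted effect of over 25% in size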
# In short: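 Cells seeded at 1000/well, rested 5 hr at 37 °C, then dosed and incubated 40 hr at 37 °C. CellTiter-Glo added, 20 min room temperature, luminescence read. AC50 by Hill fit.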
# [19] = Cell Viability - Mesenchymal (AID 546); conditions: mesenchymal cells viability, qHTS; activity change, negative = cytotoxicity: at 91.7 µM (top of the series);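 note: cells exposed to compound for 40 hours before reading; 0% = DMSO only and -100% = 100 µM tamoxifen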
# In short: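 Human renal mesenchymal cells (glomerulus-derived), 1000 cells/well, 5 hr 37 °C pre-incubation; compound 40 hr, 37 °C; CellTiter-Glo, 20 min RT; luminescence; AC50 via Hill equation.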
# [20] = target: Androgen receptor (Homo sapiens) (UniProt P10275); assay: qHTS assay for small molecule antagonists of androgen receptor signaling (AID 588516; active = well fitted curve in the direction sought with a large enough effect in the signal ratio, with a control signal flat, not every such curve was filed as active; inconclusive = small, poorly fitted or top-dose-only effect, or effect the other way, or a change in a side signal; inactive = no such curve, though single readings can be large or run the other way; the % refers to the signal ratio; note: % is set by controls: 0 for no effect and ±100 for the full control effect); conditions: AR-UAS-bla HEK293, beta-lactamase ratio, antagonist mode, 16 h; activity change, negative = inhibition: at 76.8 µM (top of the series)
# In short: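 Antagonist mode: inhibition of R1881-stimulated (10 nM final) bla reporter in GeneBLAzer AR HEK 293 cells, 16 h at 37C, compounds titrated. IC50 and efficacy from Hill-equation fits of 405/460–530 nm FRET ratios.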
smiles,measurement,setting,value
C[C@](Cc1c[nH]c2ccccc12)(NC(=O)OC1C2CC3CC(C2)CC1C3)C(=O)NC[C@H](NC(=O)CCC(=O)O)c1ccccc1 (stereo not given in full),Potency,[1],inactive
same,Potency,[2],"inconclusive: 26.4 µM [cytotoxic, single point]"
same,Potency,[3],inactive
O=C1NC(=O)[C@@H](c2cn3c4c(cccc24)CCC3)[C@H]1c1c[nH]c2ccccc12,Potency,[4],"inconclusive: 1.65 µM [cytotoxic, full curve]"
same,Potency,[5],"inconclusive: 2.93 µM [cytotoxic, full curve]"
same,Potency,[6],"inconclusive: 1.32 µM [cytotoxic, full curve]"
same,Potency,[7],active: 0.0743 µM
same,Potency,[8],active: 1.05 µM
Cc1cc(OCCOCC[N+](C)(C)Cc2ccccc2)ccc1C(C)(C)CC(C)(C)C,Potency,[9],active: 11.7 µM
same,Potency,[10],active: 7.37 µM
Cc1cc(C(C#N)c2ccc(Cl)cc2)c(Cl)cc1NC(=O)c1cc(I)cc(I)c1O (stereo not given),Potency,[11],"inconclusive: 31.6 µM [inhibitor, partial curve]"
same,Potency,[12],"active: 13.1 µM and inconclusive: 37 µM [cytotoxic, single point]"
CCCCCCCCCCCC[N+](C)(C)Cc1ccccc1,Potency,[13],inactive
same,Potency,[14],inactive
same,max response,[15],inconclusive: -39.4%
CCCC(=O)c1cc(O)c(O)cc1O,Potency,[16],inconclusive: 107 µM [single point]
same,"activity change, negative = cytotoxicity",[17],inconclusive: -32.9%
same,"activity change, negative = cytotoxicity",[18],inconclusive: -53%
same,"activity change, negative = cytotoxicity",[19],inconclusive: -35.4%
same,"activity change, negative = inhibition",[20],inconclusive: 31.9%

# A different layout for part of the listing above.
smiles	measurement	setting	value
CCCCCCCCCCCC[N+](C)(C)Cc1ccccc1	Potency	[14]	inactive
same	max response	[15]	inconclusive: -39.4%
